The assay deals with hypoxia-inducible factor 1α (human (endogenous in BCPAP and TPC-1 cells)) (UniProt Q16665). Briefly: co-IP; endogenous proteins in lysate of PTC cells after hypoxia (1% O2) for 24 h, with 10 μM MG132; HIF-1α, YAP or IgG antibody overnight at 4 °C, protein A/G-agarose beads, western blotting. A general note: A western blot detects proteins with antibodies after separation by electrophoresis.

The chains behind the UniProt entries cited, without tags or fusion partners.
UniProt Q16665: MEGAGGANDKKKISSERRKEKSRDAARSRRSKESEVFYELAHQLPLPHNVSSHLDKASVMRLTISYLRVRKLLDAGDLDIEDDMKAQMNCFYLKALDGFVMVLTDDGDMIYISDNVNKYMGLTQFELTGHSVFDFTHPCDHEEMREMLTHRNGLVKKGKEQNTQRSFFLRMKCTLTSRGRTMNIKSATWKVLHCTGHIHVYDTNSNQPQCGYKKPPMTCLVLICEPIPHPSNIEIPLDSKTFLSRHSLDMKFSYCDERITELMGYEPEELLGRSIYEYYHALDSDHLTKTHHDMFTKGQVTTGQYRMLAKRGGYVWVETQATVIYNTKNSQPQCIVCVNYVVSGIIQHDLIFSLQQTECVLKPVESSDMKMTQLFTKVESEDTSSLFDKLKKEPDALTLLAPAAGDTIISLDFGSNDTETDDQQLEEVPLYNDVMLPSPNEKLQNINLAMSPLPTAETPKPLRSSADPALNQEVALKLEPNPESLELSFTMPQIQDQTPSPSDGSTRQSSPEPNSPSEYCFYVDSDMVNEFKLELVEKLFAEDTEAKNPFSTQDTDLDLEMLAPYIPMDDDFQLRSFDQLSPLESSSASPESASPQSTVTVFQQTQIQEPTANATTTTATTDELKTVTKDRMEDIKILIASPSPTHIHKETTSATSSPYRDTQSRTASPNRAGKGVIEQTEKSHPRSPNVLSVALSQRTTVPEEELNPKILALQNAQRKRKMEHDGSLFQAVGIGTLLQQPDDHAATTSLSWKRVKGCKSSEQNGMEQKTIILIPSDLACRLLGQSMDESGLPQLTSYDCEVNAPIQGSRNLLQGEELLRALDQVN
UniProt P46937: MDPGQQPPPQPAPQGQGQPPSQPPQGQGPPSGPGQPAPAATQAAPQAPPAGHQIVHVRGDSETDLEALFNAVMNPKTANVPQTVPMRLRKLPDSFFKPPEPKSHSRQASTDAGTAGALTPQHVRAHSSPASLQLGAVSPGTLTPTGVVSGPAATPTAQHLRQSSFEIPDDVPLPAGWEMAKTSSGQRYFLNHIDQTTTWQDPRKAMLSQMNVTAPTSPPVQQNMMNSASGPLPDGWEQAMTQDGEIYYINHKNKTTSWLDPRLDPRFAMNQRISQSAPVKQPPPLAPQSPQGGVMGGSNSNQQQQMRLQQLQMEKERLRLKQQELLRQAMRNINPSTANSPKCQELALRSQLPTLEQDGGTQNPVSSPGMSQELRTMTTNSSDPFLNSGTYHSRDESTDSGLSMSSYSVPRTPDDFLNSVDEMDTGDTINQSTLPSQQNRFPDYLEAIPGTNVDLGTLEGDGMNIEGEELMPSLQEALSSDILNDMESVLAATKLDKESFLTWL

These are yes or no findings as the source states them, for the method shown. In cells and extracts the contact can be indirect. Some results given as binding are weak or reduced against the parent protein; the word gives no strength.

Consider “yes-associated protein (from UniProt P46937 1-504)”, for which the binding result is “binds”.

The values above are taken from article PMC9760428.
